{"source": "PubChem BioAssay AID1508588 – Peter MacCallum Cancer Centre | 2020", "purpose": "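Knock-downs boosting vemurafenib effects on melanoma cell growth or lactate release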 (primary screen)", "cell system": "human WM266.4 melanoma cells (BRAF V600 mutant)", "reagent": "siRNA pool against human genes, 40 nM", "duration": "96 h from transfection to read-out", "treatment": "vemurafenib 300 nM (about IC25), added 48 h after transfection, for 48 h; comparison arm got DMSO vehicle only", "measured": "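Cell gain (DAPI nuclei at end minus before drug, mean of two replicates) and medium lactate by absorbance per cell, both as ratio to non-targeting siRNA, also grouped into fold-change classes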", "direction": "cell gain with vemurafenib: higher = more cell gain than with non-targeting siRNA; lactate per cell with vemurafenib: higher = more lactate made per cell", "active means": "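Enhancement is called by pairing each knock-down's vehicle-arm and drug-arm fold-change classes for viability or glycolysis; which class combinations qualify is not given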", "calls": "active = enhances vemurafenib effect; inactive = no enhancement seen", "note": "In all, the deposit lists about 18,000 reagents; below is a random part of them. 790 of them (4.4%) count as active. 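Calls rest on a combination of fold-change classes in drug and vehicle arms, not all shown here.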 Entries without a mark were called inactive. No sequences are given here."}
{"Target gene": "TNS1", "PubChem SID": "SID135621870", "cell gain with vemurafenib": 0.32, "lactate per cell with vemurafenib": 0.8}
{"Target gene": "OXGR1", "PubChem SID": "SID152150044", "cell gain with vemurafenib": 0.63, "lactate per cell with vemurafenib": 0.9}
{"Target gene": "PTPN22", "PubChem SID": "SID134312998", "cell gain with vemurafenib": 0.38, "lactate per cell with vemurafenib": 0.54}
{"Target gene": "CDH12", "PubChem SID": "SID152153779", "cell gain with vemurafenib": 1.01, "lactate per cell with vemurafenib": 0.55}
{"Target gene": "DIPK2B", "PubChem SID": "SID134318572", "cell gain with vemurafenib": 0.86, "lactate per cell with vemurafenib": 1.19}
{"Target gene": "ABI2", "PubChem SID": "SID135621962", "cell gain with vemurafenib": 0.56, "lactate per cell with vemurafenib": 1.35}
{"Target gene": "KIF26B", "PubChem SID": "SID135624278", "cell gain with vemurafenib": -0.09, "lactate per cell with vemurafenib": 4.06}
{"Target gene": "YES1", "PubChem SID": "SID152156078", "cell gain with vemurafenib": 0.69, "lactate per cell with vemurafenib": 0.91}
{"Target gene": "CDC42", "PubChem SID": "SID152147338", "cell gain with vemurafenib": 0.3, "lactate per cell with vemurafenib": 0.86}
{"Target gene": "DNAH1", "PubChem SID": "SID152151981", "cell gain with vemurafenib": 0.55, "lactate per cell with vemurafenib": 1.31}
{"Target gene": "ERMN", "PubChem SID": "SID152155389", "cell gain with vemurafenib": 0.69, "lactate per cell with vemurafenib": 0.66}
{"Target gene": "DZIP3", "PubChem SID": "SID134312038", "cell gain with vemurafenib": 0.17, "lactate per cell with vemurafenib": 2.27}
{"Target gene": "NDUFS5", "PubChem SID": "SID134323579", "cell gain with vemurafenib": 1.05, "lactate per cell with vemurafenib": 1.34}
{"Target gene": "LOC728919 (retired record)", "PubChem SID": "SID152155559", "cell gain with vemurafenib": 0.35, "lactate per cell with vemurafenib": 1.73}
{"Target gene": "ASPSCR1", "PubChem SID": "SID134311821", "cell gain with vemurafenib": 0.85, "lactate per cell with vemurafenib": 0.5}
{"Target gene": "MBLAC1", "PubChem SID": "SID152150330", "cell gain with vemurafenib": 1.06, "lactate per cell with vemurafenib": 0.93}
{"Target gene": "MED12", "PubChem SID": "SID152147641", "cell gain with vemurafenib": "0.55 (active)", "lactate per cell with vemurafenib": 0.4}

Ordered by “lactate per cell with vemurafenib” (high to low): some entries from above
{"Target gene": "LOC728919 (retired record)", "PubChem SID": "SID152155559", "cell gain with vemurafenib": 0.35, "lactate per cell with vemurafenib": 1.73}
{"Target gene": "NDUFS5", "PubChem SID": "SID134323579", "cell gain with vemurafenib": 1.05, "lactate per cell with vemurafenib": 1.34}
{"Target gene": "MBLAC1", "PubChem SID": "SID152150330", "cell gain with vemurafenib": 1.06, "lactate per cell with vemurafenib": 0.93}
{"Target gene": "ASPSCR1", "PubChem SID": "SID134311821", "cell gain with vemurafenib": 0.85, "lactate per cell with vemurafenib": 0.5}

Additional entries:
{"Target gene": "TECPR1", "PubChem SID": "SID135624164", "cell gain with vemurafenib": 0.44, "lactate per cell with vemurafenib": 0.99}
{"Target gene": "NDUFA2", "PubChem SID": "SID135623620", "cell gain with vemurafenib": 0.5, "lactate per cell with vemurafenib": 1.77}
{"Target gene": "EDA2R", "PubChem SID": "SID134312976", "cell gain with vemurafenib": 0.54, "lactate per cell with vemurafenib": 1.9}
{"Target gene": "SHC2", "PubChem SID": "SID152154987", "cell gain with vemurafenib": 0.77, "lactate per cell with vemurafenib": 0.78}
{"Target gene": "SDR42E1", "PubChem SID": "SID152151180", "cell gain with vemurafenib": 0.77, "lactate per cell with vemurafenib": 0.89}
{"Target gene": "ZACN", "PubChem SID": "SID134313969", "cell gain with vemurafenib": 0.61, "lactate per cell with vemurafenib": 0.88}
{"Target gene": "MTNR1B", "PubChem SID": "SID152152333", "cell gain with vemurafenib": 0.3, "lactate per cell with vemurafenib": 1.88}
{"Target gene": "AKR1B10", "PubChem SID": "SID152153573", "cell gain with vemurafenib": 0.62, "lactate per cell with vemurafenib": 0.92}
{"Target gene": "DNAJC27", "PubChem SID": "SID134314546", "cell gain with vemurafenib": 0.97, "lactate per cell with vemurafenib": 1.03}
{"Target gene": "NUP210", "PubChem SID": "SID134321462", "cell gain with vemurafenib": 0.47, "lactate per cell with vemurafenib": 0.32}
